No constants are given. Whether binding was seen depends on the method and setting. Binding seen in cells or lysates may run through a third protein. Some entries that bind do so weakly or less than the wild type.
Experiments:
[1] = biological target: T1, ESRRB (mouse (endogenous in ESC)) (UniProt Q61539); experiment: co-IP
T1 sequence: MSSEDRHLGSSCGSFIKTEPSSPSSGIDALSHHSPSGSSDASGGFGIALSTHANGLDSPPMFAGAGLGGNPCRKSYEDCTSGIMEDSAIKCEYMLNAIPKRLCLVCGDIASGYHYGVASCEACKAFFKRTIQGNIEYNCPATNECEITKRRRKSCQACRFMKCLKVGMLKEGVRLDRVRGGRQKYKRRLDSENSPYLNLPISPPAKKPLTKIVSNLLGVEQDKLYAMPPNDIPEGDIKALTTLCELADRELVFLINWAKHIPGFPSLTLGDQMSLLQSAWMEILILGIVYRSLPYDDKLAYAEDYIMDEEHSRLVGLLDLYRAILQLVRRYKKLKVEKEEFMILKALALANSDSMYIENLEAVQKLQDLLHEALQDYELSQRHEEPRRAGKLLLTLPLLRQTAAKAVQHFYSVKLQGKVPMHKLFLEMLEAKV

By UniProt entry, the sequences of proteins in these tests, tags left out.
UniProt P83917: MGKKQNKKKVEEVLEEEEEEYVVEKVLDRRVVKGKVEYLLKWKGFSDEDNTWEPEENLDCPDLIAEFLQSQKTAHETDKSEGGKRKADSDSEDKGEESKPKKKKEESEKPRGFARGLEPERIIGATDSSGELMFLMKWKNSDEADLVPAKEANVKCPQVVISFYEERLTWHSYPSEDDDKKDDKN
UniProt P70398: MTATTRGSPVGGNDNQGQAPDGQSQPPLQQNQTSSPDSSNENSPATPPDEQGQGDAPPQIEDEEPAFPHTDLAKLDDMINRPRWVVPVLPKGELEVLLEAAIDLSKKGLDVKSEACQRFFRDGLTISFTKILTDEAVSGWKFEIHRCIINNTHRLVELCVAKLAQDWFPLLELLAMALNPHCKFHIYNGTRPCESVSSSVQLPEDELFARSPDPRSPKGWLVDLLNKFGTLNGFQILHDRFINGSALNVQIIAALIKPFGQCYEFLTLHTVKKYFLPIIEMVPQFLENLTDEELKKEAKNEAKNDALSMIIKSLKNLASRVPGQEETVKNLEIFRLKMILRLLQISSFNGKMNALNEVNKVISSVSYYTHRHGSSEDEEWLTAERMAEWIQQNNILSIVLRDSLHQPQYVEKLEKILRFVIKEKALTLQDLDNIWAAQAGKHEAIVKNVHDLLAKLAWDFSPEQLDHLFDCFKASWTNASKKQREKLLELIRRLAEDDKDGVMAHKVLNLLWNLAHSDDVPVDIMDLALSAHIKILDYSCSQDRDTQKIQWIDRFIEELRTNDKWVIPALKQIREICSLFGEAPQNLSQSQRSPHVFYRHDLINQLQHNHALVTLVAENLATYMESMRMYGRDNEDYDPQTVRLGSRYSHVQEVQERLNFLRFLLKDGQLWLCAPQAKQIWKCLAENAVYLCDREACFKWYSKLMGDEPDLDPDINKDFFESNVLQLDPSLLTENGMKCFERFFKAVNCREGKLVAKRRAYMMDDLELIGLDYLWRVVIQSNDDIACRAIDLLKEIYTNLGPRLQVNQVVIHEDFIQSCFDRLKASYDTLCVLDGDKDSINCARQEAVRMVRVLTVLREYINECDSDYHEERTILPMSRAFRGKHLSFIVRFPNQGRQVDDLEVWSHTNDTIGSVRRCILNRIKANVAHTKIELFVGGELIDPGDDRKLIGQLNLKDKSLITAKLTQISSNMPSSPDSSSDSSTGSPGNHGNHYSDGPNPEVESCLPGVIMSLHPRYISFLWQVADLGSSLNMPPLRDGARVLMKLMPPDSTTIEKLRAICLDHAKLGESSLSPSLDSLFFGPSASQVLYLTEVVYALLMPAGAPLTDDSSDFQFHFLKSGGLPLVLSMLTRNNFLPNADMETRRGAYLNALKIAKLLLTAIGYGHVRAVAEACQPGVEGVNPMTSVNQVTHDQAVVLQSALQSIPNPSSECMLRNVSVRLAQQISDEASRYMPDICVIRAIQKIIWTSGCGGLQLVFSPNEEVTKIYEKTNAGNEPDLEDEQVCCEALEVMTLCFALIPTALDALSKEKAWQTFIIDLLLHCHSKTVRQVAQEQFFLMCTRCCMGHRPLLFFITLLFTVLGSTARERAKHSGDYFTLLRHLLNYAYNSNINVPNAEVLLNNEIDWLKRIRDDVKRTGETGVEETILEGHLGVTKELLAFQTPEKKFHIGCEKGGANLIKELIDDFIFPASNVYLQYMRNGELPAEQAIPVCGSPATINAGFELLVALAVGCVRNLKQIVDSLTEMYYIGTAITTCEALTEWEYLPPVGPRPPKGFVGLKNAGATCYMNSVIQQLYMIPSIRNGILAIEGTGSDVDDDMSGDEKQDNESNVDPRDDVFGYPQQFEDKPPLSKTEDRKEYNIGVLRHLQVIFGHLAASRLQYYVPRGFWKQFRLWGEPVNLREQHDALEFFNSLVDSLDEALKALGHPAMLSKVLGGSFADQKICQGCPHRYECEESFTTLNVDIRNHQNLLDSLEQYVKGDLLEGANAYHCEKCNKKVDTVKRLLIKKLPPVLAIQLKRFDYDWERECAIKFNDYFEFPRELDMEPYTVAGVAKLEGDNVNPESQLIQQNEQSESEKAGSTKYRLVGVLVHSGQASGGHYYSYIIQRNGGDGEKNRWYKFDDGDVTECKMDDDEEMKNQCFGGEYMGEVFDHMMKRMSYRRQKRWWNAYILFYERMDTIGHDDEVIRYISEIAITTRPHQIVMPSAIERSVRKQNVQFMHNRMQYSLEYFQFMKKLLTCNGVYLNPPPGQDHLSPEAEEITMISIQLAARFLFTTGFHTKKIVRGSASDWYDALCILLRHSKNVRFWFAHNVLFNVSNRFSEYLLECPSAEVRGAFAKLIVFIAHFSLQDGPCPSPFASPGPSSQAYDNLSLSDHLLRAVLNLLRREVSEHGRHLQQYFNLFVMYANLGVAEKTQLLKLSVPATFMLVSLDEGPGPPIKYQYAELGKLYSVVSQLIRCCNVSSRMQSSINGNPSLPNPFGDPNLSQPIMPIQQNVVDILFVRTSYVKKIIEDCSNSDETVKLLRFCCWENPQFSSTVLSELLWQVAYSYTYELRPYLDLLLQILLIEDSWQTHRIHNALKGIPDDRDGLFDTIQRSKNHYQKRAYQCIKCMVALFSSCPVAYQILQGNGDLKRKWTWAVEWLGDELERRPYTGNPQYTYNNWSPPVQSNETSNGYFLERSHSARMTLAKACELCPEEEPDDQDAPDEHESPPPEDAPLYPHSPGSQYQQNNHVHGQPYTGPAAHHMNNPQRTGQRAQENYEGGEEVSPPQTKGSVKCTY

[2] = biological target: chromatin factor CBX1 (mouse (endogenous in ESC)) (UniProt P83917); experiment: co-IP

Question: Which binding [1] does the source give for “Deubiquitinase USP9X (from UniProt P70398 1-2559) (enzyme)” here?
Answer: The binding was “binds”.

Question: And the binding [2]?
Answer: The binding was “binds”.

From publication doi:10.1101/2020.01.13.904904
